Source: patent publication US9139638B2, “Mouse model of cholinergic dysfunction to evaluate cognitive enhancers and drugs that improve myasthenia” (priority 2006, dated 2015)
At least one compound was matched to its structure with a doubt left.

What was measured:
Format in all cases: in vivo
VAChT KD^HOM mice = assay: Grip force test in VAChT KD^HOM mice; settings: 30 min prior to the test, FIG. 4B, p<0.05
Experimental: To evaluate whether the alterations detected in neuromuscular transmission may affect neuromuscular function, we tested the performance of wild-type and mutant mice in motor tasks (FIG. 4). The wire-hang experiments were conducted as described (Sango et al. (1996) Mice lacking both subunits of lysosomal beta-hexosaminidase display gangliosidosis and mucopolysaccharidosis. Nat. Genet. 14:348-352) and time spent hanging upside down was determined with a cut-off time of 60 sec.
To measure grip force, we used a custom built force transducer connected to a small support that could be grasped by the mouse as described (Fowler et al. (2002) Motor and associative deficits in D2 dopamine receptor knockout mice. Int. J. Dev. Neurosci. 20:309-321). Five tests were performed per mouse with a maximum period of 50 sec for each animal over two different days. The force transducer was coupled to a computer and a routine was developed to record the maximal grip-force exerted. By comparison, VAChT KD^HET mice present no deficit in neuromuscular function as assessed in this test. Importantly, reduced grip-strength in VAChT KD^HOM mice was improved by prior injection of one of three cholinesterase inhibitors: pyridostigmine (i.p. 1 mg/kg), galantamine (s.c. 1 mg/kg) or physostigmine (i.p., 0.3 mg/kg), (FIG. 4B, F(3,47)=8.323 p<0.05). […]

VAChT KD^HET mice = assay: Social recognition (social memory) task with intruder, VAChT KD^HET mice; settings: 1 mg/kg s.c. 30 min before the tests, two 5-min trials, inter-trial interval 30 min, FIG. 7F
wild-type mice = assay: Social recognition (social memory) task with intruder, wild-type mice; settings: 1 mg/kg s.c. 30 min before the tests (not shown)

| SMILES | grip-strength (maximal grip-force) (VAChT KD^HOM mice; galantamine s.c. 1 mg/kg) | performance in social recognition task (exploration of intruder, second vs first exposure) (VAChT KD^HET mice) | response in social recognition task (wild-type mice) | grip-strength (maximal grip-force) (VAChT KD^HOM mice; physostigmine i.p. 0.3 mg/kg) |
| --- | --- | --- | --- | --- |
| COc1ccc2c3c1O[C@H]1C[C@@H](O)C=C[C@@]31CCN(C)C2 [galantamine] | improved | improve the performance | did not alter the response |  |
| CNC(=O)Oc1ccc2c(c1)[C@]1(C)CCN(C)[C@@H]1N2C [physostigmine] |  |  |  | improved |
